Measurements as given in publication PMC4303897.

Amino acid sequences for entries named in this document (tags omitted). A change or cut given only in a name is not applied to a line headed by its entry.
UniProt Q16891: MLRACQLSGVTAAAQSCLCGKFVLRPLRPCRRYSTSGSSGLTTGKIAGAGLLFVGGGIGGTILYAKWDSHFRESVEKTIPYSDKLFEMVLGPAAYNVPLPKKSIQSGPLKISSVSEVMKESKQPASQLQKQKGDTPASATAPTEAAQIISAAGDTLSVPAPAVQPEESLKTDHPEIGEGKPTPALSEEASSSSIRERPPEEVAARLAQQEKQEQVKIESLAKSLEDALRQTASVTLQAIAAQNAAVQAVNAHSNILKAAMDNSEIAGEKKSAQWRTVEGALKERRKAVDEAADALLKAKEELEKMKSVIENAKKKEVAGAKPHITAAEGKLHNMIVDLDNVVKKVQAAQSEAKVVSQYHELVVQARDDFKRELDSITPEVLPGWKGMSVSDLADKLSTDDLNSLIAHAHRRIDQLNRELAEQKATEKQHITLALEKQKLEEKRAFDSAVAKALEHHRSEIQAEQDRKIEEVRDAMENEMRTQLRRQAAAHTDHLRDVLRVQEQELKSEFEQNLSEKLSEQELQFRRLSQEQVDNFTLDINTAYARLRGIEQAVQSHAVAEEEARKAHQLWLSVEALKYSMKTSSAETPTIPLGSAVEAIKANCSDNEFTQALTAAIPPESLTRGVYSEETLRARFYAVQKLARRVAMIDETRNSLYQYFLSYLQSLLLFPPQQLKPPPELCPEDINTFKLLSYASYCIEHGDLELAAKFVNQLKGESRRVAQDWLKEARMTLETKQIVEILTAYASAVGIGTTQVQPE

Biological target: Mic60-MBP (human) (UniProt Q16891)
Experiment: pull-down; Mic60-MBP from bacterial supernatant immobilised on resin, incubated with purified GST fusion proteins or GST control; bound complexes washed, eluted, immunoblotted; only the binder purified

B1: TFB2M-GST (protein, UniProt Q9H5Q4 20-396)
chain: AGRFCILGSEAATRKHLPARNHCGLSDSSPQLWPEPDFRNPPRKASKASLDFKRYVTDRRLAETLAQIYLGKPSRPPHLLLECNPGPGILTQALLEAGAKVVALESDKTFIPHLESLGKNLDGKLRVIHCDFFKLDPRSGGVIKPPAMSSRGLFKNLGIEAVPWTADIPLKVVGMFPSRGEKRALWKLAYDLYSCTSIYKFGRIEVNMFIGEKEFQKLMADPGNPDLYHVLSVIWQLACEIKVLHMEPWSSFDIYTRKGPLENPKRRELLDQLQQKLYLIQMIPRQNLFTKNLTPMNYNIFFHLLKHCFGRRSATVIDHLRSLTPLDARDILMQIGKQEDEKVVNMHPQDFKTLFETIERSKDCAYKWLYDETLEDR
binding: binds

Results are given in words; binding and its absence hold for the method and conditions named. Binding seen in cells or lysates may run through a third protein. Binding can be weak; no strength is given. Tags and fused reporters may be left off the sequences shown.
